Data from paper PMC4868690.
Numbering of substitutions follows the chain as printed. No constants are given. Whether binding was seen depends on the method and setting. Binding seen in cells or lysates may run through a third protein. Where a sequence is shown, tags or fusion partners need not be part of it.

Assays:
Test in all cases: co-IP; Sa3 cells stably expressing EGFP-Rab23 forms lysed in IP and westernblot lysis buffer; anti-EGFP antibody 6 h, A/G plus beads overnight, five washes; immunoblot for endogenous partners
EGFP-Rab23 Q68L (human) = biological target: T1, EGFP-Rab23 Q68L (human) (UniProt Q9ULC3)
T1 sequence: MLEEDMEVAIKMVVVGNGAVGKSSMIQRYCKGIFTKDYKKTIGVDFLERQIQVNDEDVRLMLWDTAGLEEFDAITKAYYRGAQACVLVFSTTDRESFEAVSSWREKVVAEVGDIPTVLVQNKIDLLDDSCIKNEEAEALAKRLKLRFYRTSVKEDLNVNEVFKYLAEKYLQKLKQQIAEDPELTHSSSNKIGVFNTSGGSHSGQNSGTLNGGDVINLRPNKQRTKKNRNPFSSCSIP

EGFP-Rab23 S23N (human) = biological target: T2, EGFP-Rab23 S23N (human) (UniProt Q9ULC3)
T2 sequence: T1 sequence with S23N, L68Q

EGFP-Rab23 WT (human) = biological target: T3, EGFP-Rab23 WT (human) (UniProt Q9ULC3)
T3 sequence: T1 sequence with L68Q

Measured: binding

Rab5 (human (endogenous in Sa3))
no binding: all assays above
